These results are taken from article PMC8249388.

The exact form of at least one protein or probe is not confirmed. A negative result means that nothing was seen under these conditions. At least one verdict was read from the data and is not stated in words by the source.

In the data set the target is T1, GST-Bicc1-KH (UniProt Q99MQ1).
T1 sequence (Q99MQ1 whole entry, looked up): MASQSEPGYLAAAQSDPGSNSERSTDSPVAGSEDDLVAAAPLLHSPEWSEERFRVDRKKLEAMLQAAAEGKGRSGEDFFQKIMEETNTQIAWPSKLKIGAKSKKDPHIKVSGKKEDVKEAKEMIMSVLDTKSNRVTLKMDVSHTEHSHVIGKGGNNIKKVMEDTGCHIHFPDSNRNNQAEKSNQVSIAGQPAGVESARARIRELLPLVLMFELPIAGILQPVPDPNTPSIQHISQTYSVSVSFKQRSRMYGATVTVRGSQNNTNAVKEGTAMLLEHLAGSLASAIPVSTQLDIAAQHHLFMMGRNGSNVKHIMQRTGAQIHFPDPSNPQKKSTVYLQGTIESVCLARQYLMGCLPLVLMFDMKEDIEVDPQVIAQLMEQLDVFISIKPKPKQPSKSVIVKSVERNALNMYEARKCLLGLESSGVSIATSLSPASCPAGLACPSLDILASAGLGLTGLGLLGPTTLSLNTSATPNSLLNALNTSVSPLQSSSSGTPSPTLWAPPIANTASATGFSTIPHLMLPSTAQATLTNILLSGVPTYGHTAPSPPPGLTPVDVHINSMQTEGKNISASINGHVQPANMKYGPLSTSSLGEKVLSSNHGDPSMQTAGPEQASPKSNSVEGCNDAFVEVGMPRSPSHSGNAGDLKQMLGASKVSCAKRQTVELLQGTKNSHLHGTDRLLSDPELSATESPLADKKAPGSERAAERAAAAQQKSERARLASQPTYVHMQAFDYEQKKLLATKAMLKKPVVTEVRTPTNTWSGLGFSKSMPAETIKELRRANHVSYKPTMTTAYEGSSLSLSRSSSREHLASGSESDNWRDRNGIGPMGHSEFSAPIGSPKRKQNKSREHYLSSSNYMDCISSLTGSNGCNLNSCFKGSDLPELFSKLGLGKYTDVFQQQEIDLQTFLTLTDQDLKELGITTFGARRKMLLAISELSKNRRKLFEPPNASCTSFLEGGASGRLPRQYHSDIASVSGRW
Kind of data set: competition EMSA. As to conditions: vs labelled 66-110, 200 nM protein; 10 mM Tris-HCl pH 8, 100 mM KCl, 2.5 mM MgCl2, 2.5% glycerol, 1 mM DTT, 1 ug yeast tRNA in 20 uL, on ice 30 min; 1 pmol tagged RNA + 2.5 pmol DNA probe; 5% native PAGE; recombinant protein; letters put together from the description.

As to “UGAAGCCCUGGGUUCUAUUCGUAUGUGAUAUGUGGAGGUUAAAAA [226-270 WT (distal)]”, the binding result is “no binding”.
